PMC9398005
The comparison behind a weaker result is the experiment's own reference, which may not be listed here. For some of these results: For at least one entry, the source does not settle the construct or the ends of the probe.

By UniProt entry, the sequences of proteins in these tests, tags left out. Residues count along the entry.
UniProt P31266, whole entry K195E: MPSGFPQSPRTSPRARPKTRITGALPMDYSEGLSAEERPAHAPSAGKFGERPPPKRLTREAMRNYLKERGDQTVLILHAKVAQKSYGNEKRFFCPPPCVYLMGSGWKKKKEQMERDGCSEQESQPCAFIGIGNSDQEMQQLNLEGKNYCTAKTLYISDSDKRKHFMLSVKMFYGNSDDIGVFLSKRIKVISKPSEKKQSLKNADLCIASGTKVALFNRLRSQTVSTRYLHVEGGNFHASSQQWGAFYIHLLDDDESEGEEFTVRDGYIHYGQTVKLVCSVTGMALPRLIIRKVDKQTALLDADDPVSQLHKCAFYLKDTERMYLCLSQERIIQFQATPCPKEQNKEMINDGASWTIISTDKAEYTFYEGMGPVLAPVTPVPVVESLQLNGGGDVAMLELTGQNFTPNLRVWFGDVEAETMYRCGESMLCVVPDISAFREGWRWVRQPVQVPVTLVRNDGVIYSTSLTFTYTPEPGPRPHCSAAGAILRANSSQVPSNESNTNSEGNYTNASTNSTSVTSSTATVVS
UniProt P31266, whole entry E89G: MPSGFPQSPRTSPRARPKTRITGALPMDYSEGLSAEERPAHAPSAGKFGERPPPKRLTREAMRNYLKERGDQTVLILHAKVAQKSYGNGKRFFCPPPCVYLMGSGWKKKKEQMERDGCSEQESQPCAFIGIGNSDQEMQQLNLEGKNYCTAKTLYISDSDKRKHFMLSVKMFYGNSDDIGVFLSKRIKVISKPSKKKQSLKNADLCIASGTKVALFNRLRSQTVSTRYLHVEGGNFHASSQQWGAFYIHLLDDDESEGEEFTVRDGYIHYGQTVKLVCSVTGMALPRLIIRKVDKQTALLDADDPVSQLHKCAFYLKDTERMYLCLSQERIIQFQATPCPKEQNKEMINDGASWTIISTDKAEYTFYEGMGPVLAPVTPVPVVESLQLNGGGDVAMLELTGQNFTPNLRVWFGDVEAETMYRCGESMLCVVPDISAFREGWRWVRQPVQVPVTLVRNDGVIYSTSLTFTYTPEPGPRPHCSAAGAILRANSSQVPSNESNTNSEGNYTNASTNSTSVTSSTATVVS
UniProt P31266, 53-474 E89G: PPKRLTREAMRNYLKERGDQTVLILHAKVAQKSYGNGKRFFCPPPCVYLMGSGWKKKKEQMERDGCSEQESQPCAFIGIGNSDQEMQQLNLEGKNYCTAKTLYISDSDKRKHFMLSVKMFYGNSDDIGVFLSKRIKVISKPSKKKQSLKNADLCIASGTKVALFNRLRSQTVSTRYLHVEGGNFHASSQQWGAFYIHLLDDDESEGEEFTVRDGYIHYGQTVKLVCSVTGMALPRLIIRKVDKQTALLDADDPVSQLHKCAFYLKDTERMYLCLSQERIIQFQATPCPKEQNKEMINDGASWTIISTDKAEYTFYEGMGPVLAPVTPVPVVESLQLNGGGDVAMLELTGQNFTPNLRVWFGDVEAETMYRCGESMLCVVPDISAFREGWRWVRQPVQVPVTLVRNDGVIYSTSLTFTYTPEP
UniProt P31266, 53-474 K195E: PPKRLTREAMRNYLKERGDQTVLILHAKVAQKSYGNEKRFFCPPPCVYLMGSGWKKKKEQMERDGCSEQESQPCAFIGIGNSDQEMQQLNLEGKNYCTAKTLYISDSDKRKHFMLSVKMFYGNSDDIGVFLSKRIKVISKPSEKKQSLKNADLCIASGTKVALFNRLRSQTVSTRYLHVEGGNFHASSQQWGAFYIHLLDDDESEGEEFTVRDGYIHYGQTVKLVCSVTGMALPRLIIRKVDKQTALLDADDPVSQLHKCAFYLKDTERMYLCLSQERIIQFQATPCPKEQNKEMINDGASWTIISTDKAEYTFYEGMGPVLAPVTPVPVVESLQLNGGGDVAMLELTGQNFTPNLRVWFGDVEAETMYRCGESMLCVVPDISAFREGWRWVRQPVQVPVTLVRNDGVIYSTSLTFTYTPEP

Experiments:
Assay in all cases: EMSA
[1] = target: Flag-Rbpj K195E full length (mouse) (UniProt P31266); details: poly(dI-dC); EMSA purified: 3.4 nM probe, 10 min room temperature; protein translated in vitro; protein details: Flag; label: 32P
[2] = target: Flag-Rbpj E89G full length (mouse) (UniProt P31266); details: poly(dI-dC); EMSA purified: 3.4 nM probe, 10 min room temperature; protein translated in vitro; protein details: Flag; label: 32P
Rbpj E89G (mouse) = Rbpj E89G (mouse) (UniProt P31266); details: EMSA purified: 3.4 nM probe, 10 min room temperature; recombinant protein; residues 53-474; protein details: GST removed by PreScission (pGEX-6P1); label: IRDye-700 at 5' end of strand 2
Rbpj K195E (mouse) = Rbpj K195E (mouse) (UniProt P31266); details: EMSA purified: 3.4 nM probe, 10 min room temperature; recombinant protein; residues 53-474; protein details: GST removed by PreScission (pGEX-6P1); label: IRDye-700 at 5' end of strand 2

Sequence	binding result [1]	binding result [2]	binding result (Rbpj E89G (mouse))	binding result (Rbpj K195E (mouse))
CCTGGAACTATTTTCCCACGGTGCCCTTCCGCCCATTTTCCCACGAGTCG / CTCGCGACTCGTGGGAAAATGGGCGGAAGGGCACCGTGGGAAAATAGTTC [EMSA probe with 2 RBPJ sites]	binds more weakly	binds more weakly		
CGAACGAGGCAAACCTAGGCTAGAGGCACCGTGGGAAACTAGTGCGGGCGTGGCT (double strand) [EMSA high affinity CSL probe]			binds more weakly	binds more weakly
